The test has as its system L1210 leukemia ip in BDF1 mice, survival T/C. In words: NCI In Vivo Anticancer Drug Screen. Data for tumor model L1210 Leukemia (intraperitoneal) in B6D2F1 (BDF1) mice. The conditions noted are these: T/C endpoint: mean survival time, higher T/C = longer survival.
Setting [1] is: dose: 200.0 mg/kg/injection, schedule: Q04DX003 (ip), vehicle: Klucel (hydroxypropylcellulose) (HPC).
The mark [2] stands for this setting: dose: 200.0 mg/kg/injection, schedule: Q01DX009 (ip), vehicle: saline with Tween-80.
[3] abbreviates: dose: 400.0 mg/kg/injection, schedule: Q04DX003 (ip), vehicle: saline with Tween-80.
[4] abbreviates: dose: 400.0 mg/kg/injection, schedule: Q01DX009 (ip), vehicle: Klucel (hydroxypropylcellulose) (HPC).
Setting [5] is: dose: 50.0 mg/kg/injection, schedule: Q01DX009 (ip), vehicle: DMSO.
The mark [6] stands for this setting: dose: 400.0 mg/kg/injection, schedule: Q01DX009 (ip), vehicle: saline with Tween-80.
The mark [7] stands for this setting: dose: 100.0 mg/kg/injection, schedule: Q01DX009 (ip), vehicle: saline.
[8] abbreviates: dose: 50.0 mg/kg/injection, schedule: Q01DX009 (ip), vehicle: saline.

The list does not hold the whole screen: it gathers tests that were run many times, whatever their T/C, doses with no T/C, and many T/C values between a quarter and a half above the control. Other doses and runs of a compound stand elsewhere. T/C: endpoint of the treated group in % of that of the vehicle group. Some doses have a count of surviving animals in place of a T/C: the source files T/C as zero there, which appears to mark a toxic dose or a test without result, not a measured value. Some survivor counts are full or nearly so, which does not show that the dose was tolerated: survival well below the control is almost never listed, so the zero probably covers shortened survival too. Survivors were counted at the toxicity check, usually on the fifth day, unless a day is given; later deaths do not show. Schedule codes are those of the source, taken here to give the interval after Q, in days (D) or hours (H), and the number of doses after X. Some molecules as drawn cover several salts, stereoisomers or complexes of the source; a dose is that of the sample tested. Some entries were tested several times; the results are listed from low to high. Some schedule codes hold Z or #, which are not explained here. For survival time, the PubChem record calls one and a half times the control and up active, and a quarter to a half above the control has no call in these data; cut-offs in other NCI protocols can differ. Some T/C values carry the count of animals alive at the toxicity check (mostly the fifth day); without a count, all were alive then.

In the case of `CCCCN(C)/N=N/c1[nH]ncc1C(=O)OCC`, the T/C reads like this: (dose: 118.0 mg/kg/injection, schedule: Q01DX007 (ip), vehicle: saline) 126 % of control; (dose: 118.0 mg/kg/injection, schedule: Q01DX009 (ip), vehicle: other) 145 % of control; (dose: 177.0 mg/kg/injection, schedule: Q01DX007 (ip), vehicle: saline) 140 % of control; (dose: 177.0 mg/kg/injection, schedule: Q01DX009 (ip), vehicle: other) 138 and 148 % of control; (dose: 400.0 mg/kg/injection, schedule: Q01DX009 (ip), vehicle: other) 129 % of control. Moreover, the survivor count was 4 of 6 (dose: 600.0 mg/kg/injection, schedule: Q01DX007 (ip), vehicle: saline) and 3 of 6 (dose: 600.0 mg/kg/injection, schedule: Q01DX009 (ip), vehicle: other).

For `Cc1ccnc(NS(=O)(=O)c2ccc(N=Nc3nc4[nH]c(N)nc(=S)c4[nH]3)cc2)n1`, the T/C runs as follows: (dose: 3.13 mg/kg/injection, schedule: Q01DX009 (ip), vehicle: Klucel (hydroxypropylcellulose) (HPC)) 134 and 145 % of control; (dose: 6.25 mg/kg/injection, schedule: Q01DX009 (ip), vehicle: Klucel (hydroxypropylcellulose) (HPC)) 125 and 136 % of control; (dose: 25.0 mg/kg/injection, schedule: Q04DX003 (ip), vehicle: Klucel (hydroxypropylcellulose) (HPC)) 146 % of control. The survivor count (dose: 25.0 mg/kg/injection, schedule: Q01DX009 (ip), vehicle: Klucel (hydroxypropylcellulose) (HPC)) is reported as 6 of 6; the survivor count (dose: 50.0 mg/kg/injection, schedule: Q01DX009 (ip), vehicle: Klucel (hydroxypropylcellulose) (HPC)) is 6 of 6; the survivor count (dose: 100.0 mg/kg/injection, schedule: Q04DX003 (ip), vehicle: Klucel (hydroxypropylcellulose) (HPC)) is given as 2 of 6; the survivor count under setting [1] is listed as 0 of 6; the survivor count (dose: 400.0 mg/kg/injection, schedule: Q04DX003 (ip), vehicle: Klucel (hydroxypropylcellulose) (HPC)) is listed as 0 of 6.

For `O=[N+]([O-])c1ccc(/C=N/c2ncc(Br)s2)o1`, the survivor count is, setting by setting: under setting [2], 2 of 6; under setting [3], 2 of 6.

With `CNC(=O)n1cnc(N)n1` (tested in a mixture with another compound), the survivor count under setting [4] is recorded as 3 of 6.

For the molecule `NS(=O)(=O)c1ccc(N=Nc2ncc(CCNC3=CC(=O)C(=O)c4ccccc43)[nH]2)cc1`, the survivor count (dose: 100.0 mg/kg/injection, schedule: Q01DX009 (ip), vehicle: Klucel (hydroxypropylcellulose) (HPC)) is 3 of 3 and the survivor count (dose: 200.0 mg/kg/injection, schedule: Q01DX009 (ip), vehicle: Klucel (hydroxypropylcellulose) (HPC)) is reported as 3 of 3.

Regarding `CSc1nc(N)nc2ncc(CN(C)c3ccc(C(=O)O)cc3)nc12`, the survivor count is, setting by setting: under setting [5], 6 of 6; (dose: 100.0 mg/kg/injection, schedule: Q01DX001 (ip), vehicle: DMSO) 2 of 6; (dose: 200.0 mg/kg/injection, schedule: Q01DX001 (ip), vehicle: DMSO) 3 of 6.

In the case of `C=CCOc1ccc(Cl)cc1`, the survivor count under setting [3] is 1 of 3.

As to `O=C(Nc1ccc(Cl)cc1)Oc1c(Cl)cc(Cl)c(Cl)c1[N+](=O)[O-]`, the survivor count (dose: 400.0 mg/kg/injection, schedule: Q04DX002 (ip), vehicle: gum acacia) was 0 of 3.

`O=C1OC(=O)C2C3C=CC(C3=C(c3ccccc3)c3ccccc3)C12` (stereo unspecified): the survivor count reads like this: (dose: 100.0 mg/kg/injection, schedule: Q04DX003 (ip), vehicle: saline with Tween-80) 6 of 6; under setting [1], 6 of 6; under setting [4], 5 of 6; under setting [6], 3 of 6.

For the molecule `O=C(CC(O)(C(F)(F)F)C(F)(F)F)c1ccccc1[N+](=O)[O-]`, the survivor count reads like this: under setting [5], 6 of 6; (dose: 200.0 mg/kg/injection, schedule: Q04DX003 (ip), vehicle: DMSO) 0 of 6; (dose: 400.0 mg/kg/injection, schedule: Q04DX003 (ip), vehicle: DMSO) 0 of 6.

As for `CS(=O)(=O)c1ccc(Nn2c(N)nn(-c3ccc(S(C)(=O)=O)cc3)c2=N)cc1`, the survivor count under setting [7] is on record as 3 of 3.

As to `CN1CCCCC1CCN1c2ccccc2Sc2ccc(S(C)=O)cc21` (stereo unspecified), the T/C under setting [8] is 130 % of control. For the same molecule, the survivor count runs as follows: under setting [8], 0 of 6; under setting [7], 0 of 6; (dose: 200.0 mg/kg/injection, schedule: Q04DX003 (ip), vehicle: saline) 0 of 6; (dose: 400.0 mg/kg/injection, schedule: Q04DX003 (ip), vehicle: saline) 0 of 6.

Take `CCCCOC(CN)C(Cl)(Cl)Cl` (stereo unspecified): the T/C by setting is: (dose: 25.0 mg/kg/injection, schedule: Q01DX009 (ip), vehicle: saline) 94, 95, 103, 104 % of control; (dose: 25.0 mg/kg/injection, schedule: Q04DX002 (ip), vehicle: saline) 91, 109, 112, 126 % of control; under setting [8], 95, 97, 100 % of control [5 of 6 alive]; (dose: 50.0 mg/kg/injection, schedule: Q04DX002 (ip), vehicle: saline) 97, 100, 105, 109 % of control; under setting [7], 98 [5 of 6 alive], 108, 114 % of control; (dose: 100.0 mg/kg/injection, schedule: Q04DX002 (ip), vehicle: saline) 89, 102, 104 [5 of 6 alive], 108 [2 of 3 alive], 111, 119 % of control. Moreover, the survivor count runs as follows: under setting [8], 3 of 3; under setting [7], 3 of 3; (dose: 200.0 mg/kg/injection, schedule: Q04DX002 (ip), vehicle: saline) 1 of 6; (dose: 400.0 mg/kg/injection, schedule: Q04DX002 (ip), vehicle: saline) 0 of 3 and 0 of 6.

Consider `CCCCCC1CCC(C(=O)O)CC1` (stereo unspecified), for which the survivor count under setting [3] is 2 of 6.

Regarding `Cc1cccc(C)c1OCC1=NCCN1`, the survivor count is recorded as 0 of 6 under setting [7]; 0 of 6 (dose: 200.0 mg/kg/injection, schedule: Q01DX009 (ip), vehicle: saline); 0 of 6 (dose: 400.0 mg/kg/injection, schedule: Q01DX009 (ip), vehicle: saline).

On to `CC1CCC(C)C1NC1=NCCO1` (stereo unspecified), for which the survivor count is given as 1 of 6 (dose: 100.0 mg/kg/injection, schedule: Q01DX009 (ip), vehicle: saline with Tween-80); 0 of 6 under setting [2]; 0 of 6 under setting [6].

Regarding `CCC(O)C[As](=O)(O)c1cccc(Cl)c1` (stereo unspecified), the survivor count reads like this: (dose: 12.5 mg/kg/injection, schedule: Q01DX001 (ip), vehicle: saline with Tween-80) 2 of 6; (dose: 12.5 mg/kg/injection, schedule: Q01DX001 (ip), vehicle: saline) 4 of 6; (dose: 25.0 mg/kg/injection, schedule: Q01DX001 (ip), vehicle: saline with Tween-80) 0 of 6; (dose: 100.0 mg/kg/injection, schedule: Q01DX001 (ip), vehicle: saline with Tween-80) 0 of 6; (dose: 200.0 mg/kg/injection, schedule: Q01DX001 (ip), vehicle: saline with Tween-80) 0 of 6; (dose: 400.0 mg/kg/injection, schedule: Q01DX001 (ip), vehicle: saline with Tween-80) 0 of 6.

On to `CC(=O)OCCS(=O)(=O)c1c(Cl)c(Cl)c(Cl)c(Cl)c1Cl`, for which, under “dose: 400.0 mg/kg/injection, schedule: Q04DX002 (ip), vehicle: Klucel (hydroxypropylcellulose) (HPC)”, the survivor count is 3 of 3.

In the case of `Oc1ccc(N=Cc2ccccc2O)cc1`, the T/C is, setting by setting: (dose: 175.0 mg/kg/injection, schedule: Q01DX Z (ip), vehicle: carboxymethylcellulose (CMC)) 125 % of control; (dose: 270.0 mg/kg/injection, schedule: Q01DX015 (ip), vehicle: steroid suspending solution) 137 % of control; (dose: 400.0 mg/kg/injection, schedule: Q01DX015 (ip), vehicle: steroid suspending solution) 141 % of control. Besides, the survivor count (dose: 600.0 mg/kg/injection, schedule: Q01DX Z (ip), vehicle: carboxymethylcellulose (CMC)) is 0 of 6.

The values above are taken from PubChem BioAssay AID248 (DTP/NCI, 2004).
